According to the supplement of paper PMC8728848:
The other results are listed elsewhere or left out.

Columns and labels:
Assay in all cases: glycan array binding signal (z-score within array); higher = stronger binding
Conditions in all cases: glycan notation: IUPAC condensed, linker removed
[1] = molecular target: Neu5Ac(a2-3)Gal(b1-3)GlcNAc(b1-6)GalNAc
Procedure, shortened: (§1)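 The binding signal is a Z-score computed within each array. Data were drawn from 3228 arrays in the Consortium for Functional Glycomics database, restricted to those with a known protein sequence. Scores were averaged over arrays of the same protein sequence at different concentrations or buffers, and over linkers, and negative values can be taken as non-binding.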

[2] = molecular target: Neu5Ac(a2-3)Gal(b1-3)GlcNAc6S
Procedure, shortened: as §1

[3] = molecular target: Neu5Ac(a2-3)Gal(b1-3)[Fuc(a1-4)]GlcNAc
Procedure, shortened: as §1

[4] = molecular target: Neu5Ac(a2-3)Gal(b1-3)[Fuc(a1-4)]GlcNAc(b1-3)Gal(b1-3)[Fuc(a1-4)]GlcNAc
Procedure, shortened: as §1

[5] = molecular target: Neu5Ac(a2-3)Gal(b1-3)[Fuc(a1-4)]GlcNAc(b1-3)Gal(b1-4)[Fuc(a1-3)]GlcNAc
Procedure, shortened: as §1

[6] = molecular target: Neu5Ac(a2-3)Gal(b1-3)[GlcNAc(b1-6)]GalNAc
Procedure, shortened: as §1

[7] = molecular target: Neu5Ac(a2-3)Gal(b1-3)[Neu5Ac(a2-6)]GalNAc
Procedure, shortened: as §1

[8] = molecular target: Neu5Ac(a2-3)Gal(b1-3)[Neu5Ac(a2-6)]GlcNAc(b1-3)[Fuc(a1-3)[Gal(b1-4)]GlcNAc(b1-6)]Gal(b1-4)Glc
Procedure, shortened: as §1

[9] = molecular target: Neu5Ac(a2-3)Gal(b1-3)]Neu5Ac(a2-3)Gal(b1-4)]GlcNAc
Procedure, shortened: as §1

Neu5Ac(a2-3)Gal(b1-4)Glc = molecular target: Neu5Ac(a2-3)Gal(b1-4)Glc
Procedure, shortened: as §1

[10] = molecular target: Neu5Ac(a2-3)Gal(b1-4)GlcNAc
Procedure, shortened: as §1

[11] = molecular target: Neu5Ac(a2-3)Gal(b1-4)GlcNAc(b1-2)Man
Procedure, shortened: as §1

[12] = molecular target: Neu5Ac(a2-3)Gal(b1-4)GlcNAc(b1-2)Man(a1-3)[GlcNAc(b1-4)][Neu5Ac(a2-3)Gal(b1-4)GlcNAc(b1-2)Man(a1-6)]Man(b1-4)GlcNAc(b1-4)GlcNAc
Procedure, shortened: as §1

[13] = molecular target: Neu5Ac(a2-3)Gal(b1-4)GlcNAc(b1-2)Man(a1-3)[Neu5Ac(a2-3)Gal(b1-4)GlcNAc(b1-2)Man(a1-6)]Man(b1-4)GlcNAc(b1-4)GlcNAc
Procedure, shortened: as §1

[14] = molecular target: Neu5Ac(a2-3)Gal(b1-4)GlcNAc(b1-2)Man(a1-3)[Neu5Ac(a2-3)Gal(b1-4)GlcNAc(b1-2)Man(a1-6)]Man(b1-4)GlcNAc(b1-4)[Fuc(a1-6)]GlcNAc
Procedure, shortened: as §1

[15] = molecular target: Neu5Ac(a2-3)Gal(b1-4)GlcNAc(b1-2)Man(a1-3)[Neu5Ac(a2-6)Gal(b1-4)GlcNAc(b1-2)Man(a1-6)]Man(b1-4)GlcNAc(b1-4)GlcNAc
Procedure, shortened: as §1

[16] = molecular target: Neu5Ac(a2-3)Gal(b1-4)GlcNAc(b1-2)[Neu5Ac(a2-3)Gal(b1-4)GlcNAc(b1-4)]Man(a1-3)[GlcNAc(b1-4)][Neu5Ac(a2-3)Gal(b1-4)GlcNAc(b1-2)[Neu5Ac(a2-3)Gal(b1-4)GlcNAc(b1-6)]Man(a1-6)]Man(b1-4)GlcNAc(b1-4)GlcNAc
Procedure, shortened: as §1

[17] = molecular target: Neu5Ac(a2-3)Gal(b1-4)GlcNAc(b1-2)[Neu5Ac(a2-3)Gal(b1-4)GlcNAc(b1-4)]Man(a1-3)[GlcNAc(b1-4)][Neu5Ac(a2-3)Gal(b1-4)GlcNAc(b1-4)Man(a1-6)]Man(b1-4)GlcNAc(b1-4)GlcNAc
Procedure, shortened: as §1

[18] = molecular target: Neu5Ac(a2-3)Gal(b1-4)GlcNAc(b1-2)[Neu5Ac(a2-3)Gal(b1-4)GlcNAc(b1-6)]Man(a1-6)[Neu5Ac(a2-3)Gal(b1-4)GlcNAc(b1-2)Man(a1-3)][GlcNAc(b1-4)]Man(b1-4)GlcNAc(b1-4)GlcNAc
Procedure, shortened: as §1

[19] = molecular target: Neu5Ac(a2-3)Gal(b1-4)GlcNAc(b1-3)Gal
Procedure, shortened: as §1

[20] = molecular target: Neu5Ac(a2-3)Gal(b1-4)GlcNAc(b1-3)Gal(b1-3)GlcNAc
Procedure, shortened: as §1

[21] = molecular target: Neu5Ac(a2-3)Gal(b1-4)GlcNAc(b1-3)Gal(b1-4)GlcNAc
Procedure, shortened: as §1

[22] = molecular target: Neu5Ac(a2-3)Gal(b1-4)GlcNAc(b1-3)Gal(b1-4)GlcNAc(b1-2)Man(a1-3)[Neu5Ac(a2-3)Gal(b1-4)GlcNAc(b1-3)Gal(b1-4)GlcNAc(b1-2)Man(a1-6)]Man(b1-4)GlcNAc(b1-4)GlcNAc
Procedure, shortened: as §1

[23] = molecular target: Neu5Ac(a2-3)Gal(b1-4)GlcNAc(b1-3)Gal(b1-4)GlcNAc(b1-3)Gal(b1-4)GlcNAc
Procedure, shortened: as §1

[24] = molecular target: Neu5Ac(a2-3)Gal(b1-4)GlcNAc(b1-3)Gal(b1-4)GlcNAc(b1-3)Gal(b1-4)GlcNAc(b1-2)Man(a1-3)[Neu5Ac(a2-3)Gal(b1-4)GlcNAc(b1-3)Gal(b1-4)GlcNAc(b1-3)Gal(b1-4)GlcNAc(b1-2)Man(a1-6)]GalNAc
Procedure, shortened: as §1

[25] = molecular target: Neu5Ac(a2-3)Gal(b1-4)GlcNAc(b1-3)Gal(b1-4)GlcNAc(b1-3)GalNAc
Procedure, shortened: as §1

[26] = molecular target: Neu5Ac(a2-3)Gal(b1-4)GlcNAc(b1-3)Gal(b1-4)GlcNAc(b1-3)[Neu5Ac(a2-3)Gal(b1-4)GlcNAc(b1-3)Gal(b1-4)GlcNAc(b1-6)]GalNAc
Procedure, shortened: as §1

[27] = molecular target: Neu5Ac(a2-3)Gal(b1-4)GlcNAc(b1-3)Gal(b1-4)GlcNAc(b1-6)[Gal(b1-3)]GalNAc
Procedure, shortened: as §1

[28] = molecular target: Neu5Ac(a2-3)Gal(b1-4)GlcNAc(b1-3)Gal(b1-4)[Fuc(a1-3)]GlcNAc
Procedure, shortened: as §1

[29] = molecular target: Neu5Ac(a2-3)Gal(b1-4)GlcNAc(b1-3)GalNAc
Procedure, shortened: as §1

B1: CcfD (Bacteroides fragilis), Q5L9G4 (protein)
chain: MKKQNSIYTLLIALLCFVSSCDYLGVSDQLAGGLQNTEQVFDNVSYTKRWYANVFAGIPDYSGINSVNVGAFKNPWTGMCDELVVGYGNSSKYNNSDRNAANMGFHRYGDCYKYIRQANIFLQKAHPIMTTGTQGDQLLEDELTQMKANVRFMRAFYHYLLFEQYGPIILVKDKIYNATEDQDVPRNTVDEVIEYIDSELTAVASELTQEPIFEDKDYRAWPTKGVALAVRAKLWLYAASPLLNGGYREALSVTNPDGTRLFPDYDAGKWEKALAACKDFIDYAEAGRYELYKEYKDDNGAVIDPDKSVYNLFQKYTHEIIWATANNDWGGMNGDAFDRRIAPRCEKNGLGSTGVTQELVDAFYMKDGFPVSATAYLPQSTLYQEEGYGTYKDQNDNFSKKYTNVTVSNRYLNREPRFYNTVFFNGRQWPVSCNQVLFYNGGNSGVQEGQATLTGYMLFKRFNRSVSLTNPGVASQFRPSIIFRLADFYLMYAEAANEVNPNDARVLKYLNLVRERAGLPDIETLNPAIRGNQELQRAAIQRERQIELATEGQRYFDVRRWMIADKNGEGRQNGYVHGMNVRGESNDKEDFNRIVEASQIVFNRKMYLYPMPDSEMRKTKNLVQNPGW
glycan array binding signal (z-score) [1]: -0.64
glycan array binding signal (z-score) [2]: 0.588
glycan array binding signal (z-score) [3]: -0.082
glycan array binding signal (z-score) [4]: -0.68
glycan array binding signal (z-score) [5]: -0.076
glycan array binding signal (z-score) [6]: 0.22
glycan array binding signal (z-score) [7]: -0.049
glycan array binding signal (z-score) [8]: -0.522
glycan array binding signal (z-score) [9]: -0.87
glycan array binding signal (z-score) (Neu5Ac(a2-3)Gal(b1-4)Glc): -0.624
glycan array binding signal (z-score) [10]: -0.414
glycan array binding signal (z-score) [11]: -0.338
glycan array binding signal (z-score) [12]: -0.667
glycan array binding signal (z-score) [13]: -0.601
glycan array binding signal (z-score) [14]: 0.548
glycan array binding signal (z-score) [15]: -0.805
glycan array binding signal (z-score) [16]: -0.437
glycan array binding signal (z-score) [17]: -0.752
glycan array binding signal (z-score) [18]: -0.069
glycan array binding signal (z-score) [19]: -0.785
glycan array binding signal (z-score) [20]: 0.975
glycan array binding signal (z-score) [21]: -0.502
glycan array binding signal (z-score) [22]: -0.634
glycan array binding signal (z-score) [23]: -0.154
glycan array binding signal (z-score) [24]: 0.391
glycan array binding signal (z-score) [25]: -0.43
glycan array binding signal (z-score) [26]: -0.706
glycan array binding signal (z-score) [27]: -0.942
glycan array binding signal (z-score) [28]: -0.509
glycan array binding signal (z-score) [29]: -0.089
